PubChem BioAssay AID1259308 | NCATS, 2017
The deposit covers about 59,000 reagents; below is a random part of them. In the full data, about 1,510 (2.6%) got an active call. 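Calls use total luciferase alone and ignore viability, so some active siRNAs may act by altering cell number.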 Entries without a mark were called inactive. Not all columns of the deposit are shown. Reagent sequences are not shown.

Purpose: 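Knock-downs that increase output of a recombinant reporter protein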 (primary screen)
System: human HEK293 embryonic kidney cells stably expressing firefly luciferase (HEK-CMV-Luc2-Hygro)
Knock-down reagent: single siRNA against human genes, 0.8 pmol siRNA per well
Time to read-out: 72 h
Measurement: 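Luciferase light (ONE-Glo) measured on one replicate plate set and viability (CellTiter-Glo) on the other, scaled to a negative control siRNA, with robust z-scores and luciferase per cell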
Reading the numbers: total luciferase, z-score: higher = more reporter protein produced
Rule for the call: 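An siRNA counts as active if its total luciferase robust z-score exceeds 3; genes with two or more such siRNAs out of three were retested with fresh siRNAs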
Meaning of the calls: active = raised luciferase; inactive = no rise

total luciferase, z-score, by target gene and reagent
OR4C3 (GeneID 256144): SID160762406 -1.9; SID160762407 2.65; SID160762408 2.02
FGF21 (GeneID 26291): SID160732866 -2.25; SID160737930 -0.871; SID160737932 0.109
TERT (GeneID 7015): SID160750147 -0.229; SID160750256 -1.79; SID160750365 -0.93
OR4N3P (GeneID 390539): SID160770479 2.36; SID160770480 -0.367; SID160770481 2.79
HPCA (GeneID 3208): SID160731078 1.3; SID160775183 0.0866; SID160775184 -0.592
OR10J3 (GeneID 441911): SID160768097 0.887; SID160768098 -0.971; SID160768099 -2.26
ARID5B (GeneID 84159): SID160751804 0.473; SID160751806 0.811; SID160751807 1.94
TRIM31 (GeneID 11074): SID160729885 1.03; SID160729886 -1.65; SID160730499 3.58 (active)

Reagents listed so far called active (1):
total luciferase, z-score, by target gene and reagent
TRIM31 (GeneID 11074): SID160730499 3.58 (active)
